# About 7,700 (2.3%) of roughly 330,000 compounds were called active. Inconclusive results, whose numbers are uncertain, are shown with a selection of clear calls. Calls follow the shape of the dose curve; as a rule, active = well fitted inhibition curve with a large enough effect; inconclusive = small, poorly fitted or top-dose-only effect, or effect the other way; inactive = flat fitted curve, though single readings scatter. A potency beside an inconclusive call is a rough fit, not a confirmed value.
# Assay: qHTS screen for small molecules that inhibit ELG1-dependent DNA repair in human embryonic kidney (HEK293T) cells expressing luciferase-tagged ELG1; also: nearly all actives have a fitted effect of over 55% in size
# Details: HEK293T ELG1-luciferase reporter, luminescence, 16 h, DNA damage induced by 5-fluorouridine; activity change, negative = inhibition: at 46.1 µM (top of the series)
# Procedure, shortened: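 Reporter activity after DNA damage by 5-fluorouridine is monitored. Compound-treated cells incubate 16 hr at 37 °C, then ONE-Glo is added for 30 min before luminescence reading.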
# % is scaled to controls: 0 for no effect and ±100 for the full control effect; potency is read from the fitted curve at half-maximal effect.
SMILES,"activity change, negative = inhibition",Potency
CCOCCCn1c(SCC(=O)NC(C)C)nc2ccccc2c1=O,inactive: 0.546%,
COc1cccc(-c2nc(=S)c3c(o2)CCCC3)c1,,"inconclusive: 10.3 µM [activator, partial curve]"
CN(C)c1ccc(S(=O)(=O)NCC(=O)NCCOc2ccccc2F)cc1[N+](=O)[O-],inactive: -1.07%,
CC(c1ccon1)N(C)Cc1cn(C)nc1-c1cccc(Cl)c1 (stereo not given),inactive: -3.48%,
CCCc1cc(C(=O)NCc2ccccc2)no1,,"inconclusive: 23.1 µM [activator, partial curve]"
C=CCNC(=O)C1CC2Cn3c(nc4cc5ccccc5cc43)C2N1C (stereo not given),,"inconclusive: 13 µM [activator, partial curve, poor fit]"
COc1ccc(NC(=O)c2cc(C)nn2-c2ccccc2)cc1,inactive: 0%,
O=C(CN1CCOCC1)N1CCN(S(=O)(=O)c2ccccc2)C1c1ccccc1 (stereo not given),inactive: 6.36%,
Cc1nn2cc(-c3ccc(Cl)cc3)nc2s1,,"inconclusive: 0.58 µM [activator, full curve]"
Cc1c(Br)c([N+](=O)[O-])nn1CC(=O)Nc1ccc(Cc2ccncc2)cc1,,"inconclusive: 29.1 µM [inhibitor, single point]"
CCOC(=O)C1CCN(S(=O)(=O)c2cc(Br)cc3c2N(C(=O)C2CC2)CC3)CC1,,"inconclusive: 16.4 µM [inhibitor, single point]"
CC(=O)c1c(C)[nH]c(C(=O)OCCCCN2C(=O)c3ccccc3C2=O)c1C,,active: 6.51 µM
O=C(NNC(=O)c1cc2cc(Br)ccc2oc1=O)c1ccc(O)cc1O,,"inconclusive: 29.1 µM [inhibitor, single point]"
O=C(C1=C[C@H](C2CCCCC2)C[C@H](OCc2ccc(CO)cc2)O1)N1CCN(Cc2ccccc2)CC1,,"inconclusive: 29.1 µM [inhibitor, single point]"
CSC(=NCc1ccco1)NC#N,inactive: 1.65%,
CCOC(=O)C1CCN(S(=O)(=O)c2ccc(NC(=O)c3ccco3)cc2)CC1,,"inconclusive: 7.3 µM [inhibitor, partial curve]"
CC(C#N)OC(=O)c1cccnc1SCC(=O)Nc1ccc2c(c1)OCO2 (stereo not given),,"inconclusive: 16.4 µM [activator, partial curve]"
Cc1ccc(NC(=O)Nc2cccnc2)cc1,,"inconclusive: 18.3 µM [activator, partial curve]"
CC1(C)CC(=O)C2=C(C1)Nc1cc(Cl)ccc1S2,,active: 23.1 µM
COc1ccccc1CNC(=O)c1c(-c2ccccc2)nn(-c2ccccc2)c1C,,"inconclusive: 23.1 µM [inhibitor, single point]"

# Single entries from the list:
# CC(C#N)OC(=O)c1cccnc1SCC(=O)Nc1ccc2c(c1)OCO2 (stereo not given) | Potency: inconclusive: 16.4 µM [activator, partial curve]
# C=CCNC(=O)C1CC2Cn3c(nc4cc5ccccc5cc43)C2N1C (stereo not given) | Potency: inconclusive: 13 µM [activator, partial curve, poor fit]

# From PubChem BioAssay AID504467 (National Center for Advancing Translational Sciences (NCATS), 2011)
